Some peptides are written in HELM: one residue between dots, names in brackets for other building blocks, links after the first $. The same purity stands for every peptide and may come from a single statement.
Assay: peptide synthesis
Settings: whole synthesis

With “PEPTIDE1{C.G.H.H.L.L.R.P.R.R.R.K.R.P.H.S.I.P.T.P.I.L.I.F.R.S.P}|PEPTIDE2{C.G.H.H.L.L.R.P.R.R.R.K.R.P.H.S.I.P.T.P.I.L.I.F.R.S.P}$PEPTIDE1,PEPTIDE2,1:R3-1:R3$$$V2.0” the “purity (crude or final not stated)” value was 97%.

— patent US20220120732A1 (Ramot at Tel-Aviv University Ltd., priority 2019, published 2022)
